# In patent EP1780277A1:
# By UniProt entry, the sequences of proteins in these tests, tags left out. Where a name states a change or a piece, a line headed by the entry shows the natural chain unless it says otherwise.
# UniProt Q99873: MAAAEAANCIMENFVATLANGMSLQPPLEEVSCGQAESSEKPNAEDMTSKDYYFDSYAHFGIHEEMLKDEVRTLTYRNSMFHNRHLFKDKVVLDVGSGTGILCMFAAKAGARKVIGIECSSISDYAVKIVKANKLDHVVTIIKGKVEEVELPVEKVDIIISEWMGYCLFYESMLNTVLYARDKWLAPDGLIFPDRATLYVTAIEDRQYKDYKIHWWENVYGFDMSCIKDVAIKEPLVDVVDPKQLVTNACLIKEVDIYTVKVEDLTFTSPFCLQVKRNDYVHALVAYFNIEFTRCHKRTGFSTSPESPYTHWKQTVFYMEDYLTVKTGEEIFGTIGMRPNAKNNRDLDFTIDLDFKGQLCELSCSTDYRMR
# Results are given in words; binding and its absence hold for the method and conditions named. For some of these results: Binding seen in cells or lysates may run through a third protein. Some binding calls cover weakened binding; strength is not graded here. For some of these results: Sequences can lack the tags named with a protein.
# Key:
# [1] = biological target: T1, IFNAR1-IC domain fused to the Gal4 DNA-binding domain (pGBT10-IFNAR1-IC) (human) (UniProt P04386+P17181); assay: yeast two-hybrid
# [2] = biological target: T1, IFNAR1-IC domain fused to the Gal4 DNA-binding domain (pGBT10-IFNAR1-IC) (human); assay: yeast two-hybrid in SFY526
# [3] = biological target: T1, IFNAR1-IC domain fused to the Gal4 DNA-binding domain (pGBT10-IFNAR1-IC) (human); assay: yeast two-hybrid in SFY526, X-gal staining positive in streak 3
# [4] = biological target: T2, GST-IFNAR1-IC fusion protein (human) (UniProt P17181); assay: GST pull-down in vitro
# T2 sequence (looked up): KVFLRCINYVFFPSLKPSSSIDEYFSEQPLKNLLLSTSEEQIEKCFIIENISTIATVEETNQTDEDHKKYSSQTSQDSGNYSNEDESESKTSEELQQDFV
# [5] = biological target: T2, GST-IFNAR1-IC fusion protein (human); assay: GST pull-down of 35S-labeled in vitro translated flag-IR1B4, SDS-PAGE
# [6] = biological target: intact IFNAR1 from human cells (human) (UniProt P17181); assay: co-immunoprecipitation with anti-IFNAR1 mAb R3 on protein G beads, SDS-PAGE
# [7] = biological target: intact IFNAR1 from human cells (human) (UniProt P17181); assay: co-immunoprecipitation: 35S-labeled flag-IR1B4 mixed with U266S detergent extracts and precipitated with mAb IFNaR3 or Ab 631; IFNAR1 precipitated by anti-flag from Cos-7 cells given both cDNAs
binding [1],binding [2],binding [3],binding [4],binding [5],binding [6],binding [7],Substance
binds,binds,binds,,,,,IR1B4 fused to the Gal4 activation domain (pACT clone IR1B4) (from UniProt Q99873 11-371)
,,,binds,binds,binds,binds,"flag-IR1B4 fusion protein, [35S]methionine-labeled in vitro translation product (from UniProt Q99873 11-371)"
